These are yes or no findings as the source states them, for the method shown. In cells and extracts the contact can be indirect. Here binding means that the protein was enriched with, or labelled near, the bait; the list need not be complete.
Molecular target: mitochondrial phosphoenolpyruvate carboxykinase 2 (PCK2), endogenous in THLE2 cells (human (endogenous in THLE2)) (UniProt Q16822)
Test: affinity purification with mass spectrometry; proteins captured from THLE2 cell lysates with an anti-PCK2 antibody, resolved by SDS-PAGE, trypsin digest, LC-MS/MS (Q Exactive HF-X)

Amino acid sequences for entries named in this document (tags omitted). Residues count along the entry.
UniProt Q16822, residues 33-640: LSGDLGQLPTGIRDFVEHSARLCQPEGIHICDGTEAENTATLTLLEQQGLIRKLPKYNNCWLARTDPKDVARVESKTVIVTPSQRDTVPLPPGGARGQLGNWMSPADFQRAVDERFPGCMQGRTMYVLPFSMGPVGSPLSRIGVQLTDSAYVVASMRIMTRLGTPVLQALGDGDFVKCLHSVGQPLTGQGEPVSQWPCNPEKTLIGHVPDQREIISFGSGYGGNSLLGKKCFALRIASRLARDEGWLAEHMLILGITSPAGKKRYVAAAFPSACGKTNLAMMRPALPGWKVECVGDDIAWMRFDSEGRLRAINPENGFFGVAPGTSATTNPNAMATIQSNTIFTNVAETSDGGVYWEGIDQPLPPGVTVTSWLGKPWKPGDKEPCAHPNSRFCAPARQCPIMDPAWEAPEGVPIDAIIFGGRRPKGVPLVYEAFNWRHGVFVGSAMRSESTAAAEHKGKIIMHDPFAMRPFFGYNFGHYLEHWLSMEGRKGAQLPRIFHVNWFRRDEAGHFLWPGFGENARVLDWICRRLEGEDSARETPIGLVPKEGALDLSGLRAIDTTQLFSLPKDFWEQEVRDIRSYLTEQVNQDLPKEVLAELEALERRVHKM
UniProt P10809, residues 27-573: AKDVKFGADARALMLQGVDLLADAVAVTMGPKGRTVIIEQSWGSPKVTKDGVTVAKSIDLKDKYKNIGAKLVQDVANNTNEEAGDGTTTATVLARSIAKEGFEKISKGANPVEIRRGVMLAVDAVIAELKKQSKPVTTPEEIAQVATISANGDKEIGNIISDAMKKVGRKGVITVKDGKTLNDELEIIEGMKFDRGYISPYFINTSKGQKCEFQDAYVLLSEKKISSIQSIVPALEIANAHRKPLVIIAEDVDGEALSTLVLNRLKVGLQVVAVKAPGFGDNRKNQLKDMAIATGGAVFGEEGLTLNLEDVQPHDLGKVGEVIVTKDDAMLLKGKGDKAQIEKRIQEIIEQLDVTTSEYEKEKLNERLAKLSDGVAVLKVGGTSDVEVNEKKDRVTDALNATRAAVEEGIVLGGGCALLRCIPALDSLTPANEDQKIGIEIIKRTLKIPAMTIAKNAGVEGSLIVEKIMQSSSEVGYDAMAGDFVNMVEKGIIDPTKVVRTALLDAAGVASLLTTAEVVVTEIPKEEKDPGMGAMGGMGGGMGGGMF

- binding: binds
Substance: heat shock protein family D member 1 (HSPD1), endogenous in THLE2 cells (from UniProt P10809 27-573)
